Chains of the proteins cited; added tags and fusions are not shown.
UniProt D0VYJ1, entry or part of it: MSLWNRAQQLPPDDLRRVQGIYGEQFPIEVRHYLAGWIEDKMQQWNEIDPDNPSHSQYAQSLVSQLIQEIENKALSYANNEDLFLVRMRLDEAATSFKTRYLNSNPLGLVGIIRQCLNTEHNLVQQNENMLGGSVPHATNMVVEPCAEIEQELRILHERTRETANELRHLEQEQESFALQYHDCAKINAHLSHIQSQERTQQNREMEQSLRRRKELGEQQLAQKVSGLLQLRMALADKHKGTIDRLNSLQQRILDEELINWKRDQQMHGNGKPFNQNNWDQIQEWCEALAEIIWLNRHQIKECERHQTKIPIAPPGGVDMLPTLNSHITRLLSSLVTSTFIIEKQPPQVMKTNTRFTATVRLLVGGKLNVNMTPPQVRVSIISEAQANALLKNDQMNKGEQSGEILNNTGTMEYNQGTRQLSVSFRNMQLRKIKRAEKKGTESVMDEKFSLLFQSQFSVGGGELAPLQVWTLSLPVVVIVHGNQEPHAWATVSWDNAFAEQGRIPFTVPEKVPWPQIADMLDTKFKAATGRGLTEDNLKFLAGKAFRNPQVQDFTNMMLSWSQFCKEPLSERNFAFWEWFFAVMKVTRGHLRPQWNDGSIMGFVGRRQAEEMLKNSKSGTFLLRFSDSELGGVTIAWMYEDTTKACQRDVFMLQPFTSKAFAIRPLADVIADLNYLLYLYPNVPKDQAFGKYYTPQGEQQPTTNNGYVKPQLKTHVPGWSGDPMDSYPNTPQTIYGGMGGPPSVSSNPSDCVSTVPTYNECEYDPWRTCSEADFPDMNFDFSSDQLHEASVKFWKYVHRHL

According to paper PMC5645147, “Binding of a C-type lectin’s coiled-coil domain to the Domeless receptor directly activates the JAK/STAT pathway in the shrimp immune response to bacterial infection”:

Key:
[1] = biological target: GST-STAT (Marsupenaeus japonicus (kuruma shrimp)) (UniProt D0VYJ1); test: EMSA; details: 2 ug protein, 20 fmol Dig-probe, Beyotime EMSA binding buffer (from 5x; composition and pH not stated), 20 min with probe, room temperature (stated for competition); recombinant protein; protein details: GST
[2] = biological target: native STAT, untreated shrimp (Marsupenaeus japonicus (kuruma shrimp)) (UniProt D0VYJ1); test: EMSA; details: STAT from untreated shrimp, compared with LPS-injected; 2 ug protein, 20 fmol Dig-probe, Beyotime EMSA binding buffer (from 5x; composition and pH not stated), 20 min with probe, room temperature (stated for competition); native protein

GCGTAAGGTTTTCTTGGAATA (double strand) [CruI-1 promoter STAT probe]
binding result [1]: binds
binding result [2]: binds more weakly

Construct, isoform or probe ends are uncertain for at least one entry. For some assays here: A weaker result is weaker than the reference pair of the same experiment. For some assays here: At least one verdict rests on a figure or table, not on a statement of the authors.
